{"source": "patent US20110165614A1", "about": "“REACTION MEDIUM FOR STAPHYLOCOCCUS AUREUS BACTERIA” (BIOMERIEUX, priority 2008, published 2011)", "origin": "cited, not measured here", "system": "S. epidermidis", "details": "inhibitor in CHROMagar Staph. aureus medium", "note": "For at least one compound, name, drawing or mass did not settle the structure."}
{"smiles": "CC(=O)N(O)CCCCCNC(=O)CCC(=O)N(O)CCCCCNC(=O)CCC(=O)N(O)CCCCCN", "note": "[Deferoxamine]", "values": [{"measurement": "inhibition of S. epidermidis, in words", "result": "only partial"}]}
